The supplement of paper PMC10331698
± gives the standard deviation of the averaged measurements. Most values lie at the level of the controls, where differences are scatter.

What was measured:
Test in all cases: level (log10 ratio to DMSO vehicle control); higher = higher biomarker level / cell amount than vehicle control
[1] = compound: C=C(C)C(=O)OCCC(F)(F)C(F)(F)C(F)(F)C(F)(F)C(F)(F)C(F)(F)F [6:2 Fluorotelomer methacrylate] (in DMSO); settings: 2200 nM
Procedure: (§1)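 BioMAP Diversity Plus panel of 12 human primary cell co-culture systems (3C, 4H, LPS, SAg, BT, BF4T, BE3C, CASM3C, HDF3CGF, KF3CT, MyoF, Mphg). Compounds were added 1 h before stimulation and left for 24 h (MyoF 48 h; BT 72 h for soluble read-outs or 6 d for IgG). Biomarkers were read by ELISA, cytotoxicity by SRB, PBMC viability and proliferation by Alamar Blue. Each well value was divided by the mean of 8 DMSO control wells on the same plate and log10 transformed; duplicate blinded samples were tested at 4 concentrations.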

[2] = compound: CNS(=O)(=O)C(F)(F)C(F)(F)C(F)(F)C(F)(F)C(F)(F)C(F)(F)C(F)(F)C(F)(F)F [N-Methylperfluorooctanesulfonamide] (in DMSO); settings: 2200 nM
Procedure: as §1

[3] = compound: FC(F)(F)C(F)(F)C(F)(F)C(F)(F)CCI [1H,1H,2H,2H-Perfluorohexyl iodide] (in DMSO); settings: 2200 nM
Procedure: as §1

[4] = compound: FC(F)(F)C(F)(F)CNCC(F)(F)C(F)(F)F [Bis(1H,1H-perfluoropropyl)amine] (in DMSO); settings: 2200 nM
Procedure: as §1

[5] = compound: FC(F)(F)COC(OCC(F)(F)F)OCC(F)(F)F [tris(Trifluoroethoxy)methane] (in DMSO); settings: 2200 nM
Procedure: as §1

Hexafluoroglutaric acid = compound: O=C(O)C(F)(F)C(F)(F)C(F)(F)C(=O)O [Hexafluoroglutaric acid] (in DMSO)
Procedure: as §1

Perfluorohexanoic acid = compound: O=C(O)C(F)(F)C(F)(F)C(F)(F)C(F)(F)C(F)(F)F [Perfluorohexanoic acid] (in DMSO)
Procedure: as §1

[6] = compound: O=C(O)C(F)(F)C(F)(F)C(F)(F)OC(F)(C(F)(F)F)C(F)(F)F [Perfluoro-4-isopropoxybutanoic acid] (in DMSO); settings: 2200 nM
Procedure: as §1

[7] = compound: O=C(O)C(F)(OC(F)(F)C(F)(F)C(F)(F)F)C(F)(F)F [Ammonium perfluoro-2-methyl-3-oxahexanoate] (in Water)
Procedure: as §1

[8] = compound: O=C(O)C(F)(OC(F)(F)C(F)(OC(F)(F)C(F)(OC(F)(F)C(F)(F)C(F)(F)F)C(F)(F)F)C(F)(F)F)C(F)(F)F [Perfluoro-(2,5,8-trimethyl-3,6,9-trioxadodecanoic)acid] (in DMSO); settings: 370 nM
Procedure: as §1

[9] = compound: O=C(O)CCC(F)(F)C(F)(F)C(F)(F)F [3:3 Fluorotelomer carboxylic acid] (in DMSO); settings: 2200 nM
Procedure: as §1

[10] = compound: O=S(=O)(O)C(F)(F)C(F)(F)C(F)(F)C(F)(F)F [Perfluorobutanesulfonic acid] (in DMSO)
Procedure: as §1

[11] = compound: OCC(F)(F)C(F)(F)C(F)(F)C(F)(F)C(F)(F)C(F)(F)CO [1H,1H,8H,8H-Perfluorooctane-1,8-diol] (in DMSO); settings: 2200 nM
Procedure: as §1

[12] = compound: OCC(F)(F)C(F)(F)C(F)(F)C(F)(F)C(F)(F)C(F)(F)F [6:1 Fluorotelomer alcohol] (in DMSO); settings: 2200 nM
Procedure: as §1

[13] = compound: OCC(F)(F)C(F)(F)C(F)(F)C(F)F [1H,1H,5H-Perfluoropentanol] (in DMSO); settings: 2200 nM
Procedure: as §1

[14] = compound: OCC(F)(F)OC(F)(F)C(F)(F)OC(F)(F)CO [1H,1H,8H,8H-Perfluoro-3,6-dioxaoctane-1,8-diol] (in DMSO); settings: 2200 nM
Procedure: as §1

[15] = compound: OCCCC(F)(F)C(F)(F)C(F)(F)C(F)(F)C(F)(F)C(F)(F)C(F)(F)C(F)(F)F [3-(Perfluorooctyl)propanol] (in DMSO); settings: 2200 nM
Procedure: as §1

Test System	level (log10) [1]	level (log10) [2]	level (log10) [3]	level (log10) [4]	level (log10) [5]	level (log10) (Hexafluoroglutaric acid; 2200 nM)	level (log10) (Hexafluoroglutaric acid; 6700 nM)	level (log10) (Hexafluoroglutaric acid; 20000 nM)	level (log10) (Hexafluoroglutaric acid; 60000 nM)	level (log10) (Perfluorohexanoic acid; 2200 nM)	level (log10) (Perfluorohexanoic acid; 6700 nM)	level (log10) (Perfluorohexanoic acid; 20000 nM)	level (log10) (Perfluorohexanoic acid; 60000 nM)	level (log10) [6]	level (log10) ([7]; 2200 nM)	level (log10) ([7]; 6700 nM)	level (log10) ([7]; 20000 nM)	level (log10) ([7]; 60000 nM)	level (log10) [8]	level (log10) [9]	level (log10) ([10]; 2200 nM)	level (log10) ([10]; 6700 nM)	level (log10) ([10]; 20000 nM)	level (log10) ([10]; 60000 nM)	level (log10) [11]	level (log10) [12]	level (log10) [13]	level (log10) [14]	level (log10) [15]
BF4T:CCL2/MCP-1	0.0125 ± 0.033	0.032 ± 0.021	0.0665 ± 0.016	0.0155 ± 0.00071	0.0205 ± 0.063	0.0345 ± 0.1	0.0015 ± 0.043	-0.0225 ± 0.005	0.0085 ± 0.032	-0.007 ± 0.04	-0.0045 ± 0.0021	-0.012 ± 0.024	-0.0015 ± 0.052	0.022 ± 0.0014	-0.0025 ± 0.005	0.007 ± 0.031	0.005 ± 0.048	0.0285 ± 0.021	0.0175 ± 0.073	0.019 ± 0.051	0.0045 ± 0.022	0.028 ± 0.0014	0.026 ± 0.024	0.033 ± 0.018	0.0135 ± 0.0064	0.001 ± 0.0028	0.0165 ± 0.03	0.0455 ± 0.021	0.001 ± 0.014
BT:sIL-2	0.0365 ± 0.037	0.0065 ± 0.047	0.0715 ± 0.069	0.025 ± 0.076	0.0515 ± 0.081	0.0245 ± 0.1	-0.006 ± 0.11	0.0205 ± 0.039	0.061 ± 0.013	-0.0275 ± 0.059	-0.0225 ± 0.0064	0.0345 ± 0.098	0.0275 ± 0.074	0.015 ± 0.078	-0.115 ± 0.068	-0.093 ± 0.0099	-0.0525 ± 0.015	-0.124 ± 0.028	0.0165 ± 0.084	0.005 ± 0.061	-0.0355 ± 0.04	-0.0155 ± 0.079	-0.059 ± 0.044	-0.025 ± 0.04	-0.025 ± 0.018	-0.0535 ± 0.12	0.0915 ± 0.0035	0.0295 ± 0.026	-0.017 ± 0.092
HDF3CGF:CCL2/MCP-1	-0.0245 ± 0.013	0.0285 ± 0.016	0.0015 ± 0.016	-0.044 ± 0.035	0.027 ± 0.067	0.007 ± 0.0057	-0.01 ± 0.0028	-0.0215 ± 0.012	-0.005 ± 0.0042	-0.002 ± 0.03	-0.0145 ± 0.00071	-0.009 ± 0.03	-0.0205 ± 0.04	0.007 ± 0.023	0 ± 0.0085	0.011 ± 0.025	0.0285 ± 0.0021	0.019 ± 0.0028	-0.023 ± 0.017	0.0115 ± 0.016	-0.0285 ± 0.029	-0.0075 ± 0.037	0.0005 ± 0.025	-0.023 ± 0.03	-0.0015 ± 0.015	-0.022 ± 0.033	-0.0435 ± 0.042	0.022 ± 0.02	-0.0065 ± 0.0078
LPS:CD141/Thrombomodulin	-0.0055 ± 0.0021	-0.01 ± 0.0014	0.02 ± 0.021	0.048 ± 0.093	-0.044 ± 0.017	-0.0185 ± 0.005	0.002 ± 0.0071	-0.022 ± 0.021	-0.0355 ± 0.032	0.0135 ± 0.0078	0.0085 ± 0.012	0.0065 ± 0.026	0.007 ± 0.017	0.005 ± 0.028	-0.0035 ± 0.0092	-0.013 ± 0.031	-0.0025 ± 0.0092	-0.036 ± 0.028	-0.005 ± 0.0057	-0.0095 ± 0.03	-0.02 ± 0.02	-0.048 ± 0.0085	-0.0045 ± 0.015	-0.024 ± 0.031	0.004 ± 0.0057	-0.002 ± 0.0071	-0.0215 ± 0.026	0.026 ± 0.0099	-0.0045 ± 0.025
SAg:SRB	0.0015 ± 0.016	-0.009 ± 0.02	-0.0105 ± 0.005	0.001 ± 0.0028	-0.0075 ± 0.0078	-0.0035 ± 0.0092	-0.0055 ± 0.00071	-0.0105 ± 0.016	-0.0035 ± 0.016	-0.0015 ± 0.016	-0.0055 ± 0.0035	-0.0135 ± 0.0035	-0.001 ± 0.0028	-0.0105 ± 0.0078	-0.0145 ± 0.005	-0.019 ± 0.0042	-0.01 ± 0.0014	-0.0285 ± 0.0021	0.004 ± 0.014	-0.0035 ± 0.0064	0.0135 ± 0.018	0.0005 ± 0.0092	-0.0085 ± 0.0092	-0.0055 ± 0.013	0.0115 ± 0.015	0.004 ± 0.0042	-0.006 ± 0.0042	-0.0145 ± 0.0064	0.006 ± 0.023
3C:CCL2/MCP-1	0.0175 ± 0.084	0.0315 ± 0.0092	0.014 ± 0.021	0.004 ± 0.016	0.0025 ± 0.044	0.009 ± 0.027	-0.0005 ± 0.0035	0.0095 ± 0.0035	0.028 ± 0.018	0.0115 ± 0.019	-0.006 ± 0.0028	-0.0145 ± 0.005	0.0115 ± 0.022	0.0185 ± 0.03	0.0315 ± 0.044	-0.003 ± 0.0085	-0.004 ± 0.016	0.056 ± 0.05	0.0035 ± 0.042	0.0025 ± 0.0064	0.026 ± 0.086	0.0025 ± 0.05	0.0015 ± 0.021	0.0355 ± 0.043	0.026 ± 0.016	-0.003 ± 0.024	0.007 ± 0.018	0.0285 ± 0.0064	-0.006 ± 0.024
HDF3CGF:M-CSF	-0.02 ± 0.0028	0.007 ± 0.013	-0.011 ± 0.0071	0.0025 ± 0.005	0.0035 ± 0.022	-0.0255 ± 0.0064	-0.0015 ± 0.013	-0.006 ± 0.033	-0.0285 ± 0.029	-0.01 ± 0.0099	-0.015 ± 0.059	0.013 ± 0.021	-0.006 ± 0.05	-0.0065 ± 0.0021	-0.0455 ± 0.022	-0.0345 ± 0.00071	-0.0245 ± 0.013	-0.0595 ± 0.035	0.005 ± 0.028	0.009 ± 0.017	0.014 ± 0.028	0.011 ± 0.0085	0.0045 ± 0.0035	0.0025 ± 0.005	0.0285 ± 0.0035	0.034 ± 0.018	-0.0525 ± 0.077	0.011 ± 0.013	0.0145 ± 0.00071
